# Reference: PubChem BioAssay AID206 (DTP/NCI, 2004)
# The list is a part of this screen's results and no random one: it gathers tests that were run many times, whatever their T/C, doses with no T/C, and many T/C values between a quarter and a half above the control. Other doses and runs of a compound stand elsewhere. T/C: endpoint of the treated group in % of that of the vehicle group. Schedules are NCI's codes, read here as Q, the interval in days (D) or hours (H), X, the number of doses. Some T/C values are followed by the survivors on the day toxicity was checked, most often the fifth; where none is given, no animal had died by that day. Some doses have a count of surviving animals in place of a T/C: the source holds a T/C of zero for them, seemingly a mark for toxic or unscored doses. Counts of survivors are from the toxicity check (mostly the fifth day) where no day follows; animals may have died later. Some entries were tested several times; the results are listed from low to high.
# System: nude mice, HT29 intrarenal xenograft, tumor weight T/C
# Assay: NCI In Vivo Anticancer Drug Screen. Data for tumor model HT29;CX-1 Human Adenocarcinoma (MER+) (intrarenal inoculation) in NU/NU Swiss (nude) mice
# Conditions: T/C endpoint: mean tumor weight change, higher T/C = larger tumour
# How it was run: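 Readout: treated/vehicle-control ratio of the measured endpoint (tumor size or survival) in transplanted-tumor mice.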
# [1] = dose: 400.0 mg/kg/injection, schedule: Q01DX010 (sc), vehicle: saline with Tween-80
# [2] = dose: 800.0 mg/kg/injection, schedule: Q01DX010 (sc), vehicle: saline with Tween-80
# [3] = dose: 300.0 mg/kg/injection, schedule: Q04DX004 (sc), vehicle: saline with Tween-80
structure (smiles),measurement,setting,value
O=NN(CCCl)C(=O)NC1CCCCC1,T/C,"dose: 12.5 mg/kg/injection, schedule: Q04DX004 (sc), vehicle: Klucel (hydroxypropylcellulose) (HPC), evaluated on day 15",126 % of control
same,survivor count,"dose: 64.0 mg/kg/injection, schedule: Q01DX010 (sc), vehicle: saline with Tween-80",0 of 3 on day 11
same,survivor count,"dose: 100.0 mg/kg/injection, schedule: Q04DX004 (sc), vehicle: Klucel (hydroxypropylcellulose) (HPC)",1 of 3 on day 15
C1CCC2[N-]CC3CCCCC3[N-]CC3CCCCC3[N-]CC3CCCCC3[N-]CC2C1.[Cu] (stereo unspecified),survivor count,"dose: 50.0 mg/kg/injection, schedule: Q01DX010 (sc), vehicle: Klucel (hydroxypropylcellulose) (HPC)",0 of 3 on day 20
[N-]=[N+]=CC(=O)CCC(=O)C=[N+]=[N-],T/C,"dose: 4.5 mg/kg/injection, schedule: Q04DX004 (sc), vehicle: DMSO, evaluated on day 15",129 % of control
C[Si](C)(C)n1nnn(-c2ccccc2)c1=O,T/C,"dose: 150.0 mg/kg/injection, schedule: Q04DX004 (sc), vehicle: saline with Tween-80, evaluated on day 15",131 % of control
C[C@]12CCC(=O)C=C1CC[C@@H]1[C@@H]2C(=O)C[C@@]2(C)[C@H]1CC[C@]2(O)C(=O)CO,survivor count,"dose: 2400.0 mg/kg/injection, schedule: Q04DX004 (sc), vehicle: Klucel (hydroxypropylcellulose) (HPC)",0 of 6 on day 15
CCC(C(=O)O)C(=O)O.[NH2-].[NH2-].[Pt+2],T/C,"dose: 37.5 mg/kg/injection, schedule: Q04DX004 (sc), vehicle: saline, evaluated on day 15",142 % of control
same,survivor count,"dose: 300.0 mg/kg/injection, schedule: Q04DX004 (sc), vehicle: saline",1 of 6 on day 15
CC[n+]1c(-c2ccccc2)c2cc(N)ccc2c2ccc(N)cc21,survivor count,"dose: 120.0 mg/kg/injection, schedule: Q04DX004 (sc), vehicle: saline",0 of 6 on day 15
Oc1cc2c3c(c1)c1cc4c(cc1c[n+]3CC2)OCO4,survivor count,"dose: 800.0 mg/kg/injection, schedule: Q04DX004 (sc), vehicle: water",2 of 6 on day 15
c1cc(OCC2CO2)ccc1OCC1CO1 (stereo unspecified),T/C,"dose: 800.0 mg/kg/injection, schedule: Q04DX004 (sc), vehicle: saline with Tween-80, evaluated on day 15",133 % of control
same,T/C,"dose: 1600.0 mg/kg/injection, schedule: Q04DX004 (sc), vehicle: saline with Tween-80, evaluated on day 15",143 % of control [5 of 6 alive on day 15]
CC[C@](O)(C(=O)O)c1cc2n(c(=O)c1CO)Cc1cc3ccccc3nc1-2,survivor count,"dose: 62.5 mg/kg/injection, schedule: Q04DX004 (sc), vehicle: saline",3 of 6 on day 15
same,survivor count,"dose: 125.0 mg/kg/injection, schedule: Q04DX004 (sc), vehicle: saline",0 of 6 on day 15
same,survivor count,"dose: 250.0 mg/kg/injection, schedule: Q04DX004 (sc), vehicle: saline",0 of 5 on day 15 and 0 of 6 on day 15
C[C@@H](CN1CC(=O)NC(=O)C1)N1CC(=O)NC(=O)C1,survivor count,[1],0 of 3 on day 11
same,survivor count,[2],0 of 3 on day 11
CCN=C=NCCCN(C)C,survivor count,"dose: 200.0 mg/kg/injection, schedule: Q04DX004 (sc), vehicle: saline",0 of 6 on day 15
N/C(=N\O)c1cn(C2OC(CO)C(O)C2O)c2ncnc(N)c12 (stereo unspecified),T/C,"dose: 10.0 mg/kg/injection, schedule: Q04DX004 (sc), vehicle: Klucel (hydroxypropylcellulose) (HPC), evaluated on day 15",133 % of control
same,survivor count,"dose: 20.0 mg/kg/injection, schedule: Q04DX004 (sc), vehicle: Klucel (hydroxypropylcellulose) (HPC)",1 of 6 on day 15
same,survivor count,"dose: 40.0 mg/kg/injection, schedule: Q04DX004 (sc), vehicle: Klucel (hydroxypropylcellulose) (HPC)",0 of 6 on day 15
CCCCCCC(=O)CC(SCC)c1ccccc1Cl (stereo unspecified),T/C,"dose: 600.0 mg/kg/injection, schedule: Q04DX004 (sc), vehicle: saline with Tween-80, evaluated on day 15",126 % of control
C[C@H](CCC[C@H](C)OS(=O)(=O)c1ccccc1)OS(=O)(=O)c1ccccc1,survivor count,[3],3 of 6 on day 15
same,survivor count,"dose: 600.0 mg/kg/injection, schedule: Q04DX004 (sc), vehicle: saline with Tween-80",0 of 6 on day 15
CCOC1=Cc2c(oc3c(C(C)(C)C)cc(OCC)cc23)OC(C(C)(C)C)=C1,T/C,"dose: 300.0 mg/kg/injection, schedule: Q04DX004 (sc), vehicle: saline with Tween-80, evaluated on day 15",132 % of control
CN=S(=O)(OCCCCCOS(=O)(=NC)c1ccccc1)c1ccccc1 (stereo unspecified),survivor count,"dose: 1200.0 mg/kg/injection, schedule: Q04DX004 (sc), vehicle: saline with Tween-80",0 of 6 on day 15
CCC1(O)CC2CN(CCc3c([nH]c4ccccc34)C(C(=O)OC)(c3cc4c(cc3OC)N(C)C3C(O)(C(N)=O)C(O)C5(CC)C=CCN6CCC43C65)C2)C1 (stereo unspecified) (tested in a mixture with another compound),survivor count,"dose: 12.0 mg/kg/injection, schedule: Q04DX004 (sc), vehicle: water",1 of 6 on day 15 and 3 of 6 on day 15
same,survivor count,"dose: 24.0 mg/kg/injection, schedule: Q04DX004 (sc), vehicle: water",0 of 6 on day 15
C[n+]1c(/C=C\C=C\N2CCCCC2)sc2ccccc21,survivor count,"dose: 6.0 mg/kg/injection, schedule: Q04DX004 (sc), vehicle: Klucel (hydroxypropylcellulose) (HPC)",0 of 6 on day 15
same,survivor count,"dose: 12.0 mg/kg/injection, schedule: Q04DX004 (sc), vehicle: Klucel (hydroxypropylcellulose) (HPC)",0 of 6 on day 15
O=Cc1ccc(C(Cl)(Cl)Cl)cc1,T/C,"dose: 200.0 mg/kg/injection, schedule: Q01DX010 (sc), vehicle: saline with Tween-80, evaluated on day 11",127 % of control
same,T/C,"dose: 800.0 mg/kg/injection, schedule: Q01DX010 (sc), vehicle: saline with Tween-80, evaluated on day 11",145 % of control [2 of 3 alive on day 11]
CCCC(=O)Oc1ccc(/C=N/NC(N)=S)nc1,survivor count,[1],1 of 3 on day 11
same,survivor count,[2],0 of 3 on day 11
NC(=O)CC(N)C(=O)O (stereo unspecified),T/C,"dose: 1600.0 mg/kg/injection, schedule: Q04DX004 (sc), vehicle: saline, evaluated on day 15",138 % of control
CCCCCCCCCCCCCCCCS(=O)CC(O)COC(=O)c1ccc(C(=O)OCC(O)CS(=O)CCCCCCCCCCCCCCCC)cc1 (stereo unspecified),survivor count,"dose: 50.0 mg/kg/injection, schedule: Q01DX010 (sc), vehicle: saline + Tween-80 + alcohol",1 of 3 on day 20
OC1CCCC2CCCNC12 (stereo unspecified),survivor count,[3],0 of 6 on day 15
C(C#CCN1CCOCC1)#CCN1CCOCC1,T/C,"dose: 300.0 mg/kg/injection, schedule: Q04DX004 (sc), vehicle: Klucel (hydroxypropylcellulose) (HPC), evaluated on day 15",137 % of control
CCCCCCCC(=O)OCC(=O)[C@]1(O)Cc2c(O)c3c(c(O)c2[C@@H](OC2CC(N)C(O)C(C)O2)C1)C(=O)c1c(OC)cccc1C3=O (stereo partly specified),survivor count,"dose: 16.0 mg/kg/injection, schedule: Q01DX010 (sc), vehicle: suspension in saline",0 of 3 on day 20
same,survivor count,"dose: 40.0 mg/kg/injection, schedule: Q04DX004 (sc), vehicle: suspension in saline",0 of 3 on day 15
CCCCCC[C@H]([C@H](C)O)n1cnc2c(N)ncnc21,survivor count,"dose: 400.0 mg/kg/injection, schedule: Q01DX010 (sc), vehicle: saline",1 of 3 on day 11
CC1(C)OCC(CO)(Nc2nc(N3CC3)nc(N3CC3)n2)CO1,survivor count,"dose: 4.0 mg/kg/injection, schedule: Q04DX004 (sc), vehicle: saline",3 of 5 on day 15
same,survivor count,"dose: 8.0 mg/kg/injection, schedule: Q04DX004 (sc), vehicle: saline",0 of 6 on day 15
same,survivor count,"dose: 16.0 mg/kg/injection, schedule: Q04DX004 (sc), vehicle: saline",0 of 6 on day 15
CCOC(OCC)C(=O)OCC(=O)[C@]1(O)Cc2c(O)c3c(c(O)c2[C@@H](OC2CC(N)C(O)C(C)O2)C1)C(=O)c1c(OC)cccc1C3=O (stereo partly specified),survivor count,"dose: 10.0 mg/kg/injection, schedule: Q04DX004 (sc), vehicle: water",2 of 5 on day 15
same,survivor count,"dose: 20.0 mg/kg/injection, schedule: Q04DX004 (sc), vehicle: water",0 of 5 on day 15 and 3 of 6 on day 15
CCC1=C[C@H]2CN(CCc3c([nH]c4ccccc34)[C@@](C(=O)OC)(c3cc4c(cc3OC)N(C)[C@H]3[C@@](O)(C(=O)NC)[C@H](OC(C)=O)[C@]5(CC)C=CCN6CC[C@]43[C@@H]65)C2)C1,survivor count,"dose: 8.0 mg/kg/injection, schedule: Q04DX004 (sc), vehicle: water",0 of 6 on day 15
F[B-](F)(F)F,survivor count,"dose: 1800.0 mg/kg/injection, schedule: Q04DX004 (sc), vehicle: gum acacia",1 of 6 on day 15
COC1=C(C)C(=O)C2=C(C1=O)C1C3CC4=C(C(=O)C(OC)=C(C)C4=O)C(CNC(=O)C(C)=O)N3C(C#N)C(C2)N1C (stereo unspecified),T/C,"dose: 4.0 mg/kg/injection, schedule: Q04DX004 (sc), vehicle: Klucel (hydroxypropylcellulose) (HPC), evaluated on day 15",141 % of control [4 of 6 alive on day 15]
same,survivor count,"dose: 8.0 mg/kg/injection, schedule: Q04DX004 (sc), vehicle: Klucel (hydroxypropylcellulose) (HPC)",1 of 6 on day 15
